The text below walks through data of publication doi:10.1101/2025.04.11.646618.

No constants are given. Whether binding was seen depends on the method and setting. Some results given as binding are weak or reduced against the parent protein; the word gives no strength.

The target in the assay is Roq1 (Recognition of XopQ 1). Nature of the assay: native gel or EMSA. On the technique in general: A gel shift assay detects complexes by their altered migration in electrophoresis.

B1: Roq1 (Recognition of XopQ 1) (receptor, UniProt A0A290U7C4)
chain: MLTSSSHHGRSYDVFLSFRGEDTRKTFVGHLFNALIEKGIHTFMDDKELKRGKSISSELMKAIGESRFAVVVFSKNYASSTWCLEELVKILEIHEKFELIVVPVFYDVDPSTVRKQNGEYAVCFTKFEANLVDDRDKVLRWREALTKVANISGHDLRNTYNGDESKCIQQILKDIFDKFCFSISITNRDLVGIESQIKKLSSLLRMDLKGVRLVGIWGMGGVGKTTAARALFNRYYQNFESACFLEDVKEYLQHHTLLYLQKTLLSKLLKVEFVDCTDTEEMCVILKRRLCSKKVLVVLDDVNHNDQLDKLVGAEDWFGSGSRIVITTRDMKLLKNHDVHETYEIKVLEKDEAIELFNLHAFKRSSPEKEFKELLNLVVDYTGGLPLALKVLGSLLYKEDLDVWISTIDRLKDNPEGEIMATLKISFDGLRDYEKSIFLDIACFFRGYNQRDMTALFHASGFHPVLGVKTLVEKSLIFILEDKIQMHDLMQEMGRQIAVQESPMRRIYRPEDVKDACIGDMRKEAIEGLLLTEPEQFEEGELEYMYSAEALKKTRRLRILVKEYYNRGFDEPVAYLPNSLLWLEWRNYSSNSFPSNFEPSKLVYLTMKGSSIIELWNGAKRLAFLTTLDLSYCHKLIQTPDFRMITNLERLILSSCDALVEVHPSVGFLKNLILLNMDHCISLERLPAIIQSECLEVLDLNYCFNLKMFPEVERNMTHLKKLDLTSTGIRELPASIEHLSSLENLQMHSCNQLVSLPSSIWRFRNLKISECEKLGSLPEIHGNSNCTRELILKLVSIKELPTSIGNLTSLNFLEICNCKTISSLSSSIWGLTSLTTLKLLDCRKLKNLPGIPNAINHLSGHGLQLLLTLEQPTIYERLDLLRIIDMSWCSCISSLPHNIWMLKFLRILCISYCSRLEYLPENLGHLEHLEELLADGTGILRLPSSVARLNKLEVLSFRKKFAIGPKVQYSSSMLNLPDDVFGSLGSLGSVVKLNLSGNGFCNLPETMNQLFCLEYLDITFCQRLEALPELPPSIKELYVDEHLALRIMEDLVIKCKELNLIAVTKIEYQNFYRWLDSIWSDVSELLENSQKQQLDDMLQLIPFSYLSTAKREEVLKIVIHGTRIPEWFRWQDRSATTMSVNLPEYWYTENFLGFAICCSCCFYHSARSYDVEFEGSMHHYNYDSSYWKEYEEPSYDFYERDSIEITAKLTPRHKGMRTEELKKVCSFSMNVLRRATAVPNMCFAFFPFNSLCHISNLQANNPNDYGIFETCLSPGDIRHRGKQWGFNLVYKDETGGSVTHEMLINR
For B1, the binding entry is on record as “binds”.
